Source: PubChem BioAssay AID493246 (Drosophila RNAi Screening Center, 2011)

Screen: 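Genes fly cells need to grow and stay alive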 (primary screen)
Cell system: Drosophila Kc and S2R+ cells
Reagent: long dsRNA against Drosophila genes
Measured: 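Cell number per well after knock-down, printed as raw plate values; calls were based on per-plate z-scores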
Scale: Kc cell number and S2R+ cell number: higher = more cells remaining
Call rule: 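Active when the per-plate z-score of cell number is 3 or more in the direction of fewer cells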
In all, the deposit lists about 21,000 reagents; below is an unselected part of those with a known target gene and a result. Over the whole deposit, 429 (2%) are marked active. 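Values are raw and not normalised between plates; calls rest on per-plate z-scores that were not deposited.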 A number with no mark means an inactive call. Names joined by + are all predicted targets of the reagent. Not given: the amount of reagent, the time to read-out.

| gene knocked down | amplicon | Kc cell number, rep 1 | Kc cell number, rep 2 | S2R+ cell number, rep 1 | S2R+ cell number, rep 2 |
| --- | --- | --- | --- | --- | --- |
| stv | DRSC09796 | 1.65e6 | 1.74e6 | 1.13e6 | 1.26e6 |
| stv | DRSC10111 | 1.47e6 | 1.81e6 | 1.27e6 | 1.27e6 |
| CG11630 | DRSC03696 | 1.54e6 | 1.60e6 | 1.26e6 | 3.08e5 |
| CG1764 | DRSC19779 | 6.18e5 | – | 8.79e5 | – |
| Pex6 + Hao | DRSC06097 | 1.36e6 | 1.39e6 | 1.16e6 | 1.11e6 |
| Pex6 + Hao | DRSC06704 | 1.92e6 | 1.77e6 | 1.40e6 | 1.73e6 |
| CG14694 | DRSC14917 | 1.39e6 | 1.40e6 | 1.33e6 | 1.44e6 |
| Spn28Dc | DRSC03029 | 1.39e6 | 1.55e6 | 1.00e6 | 1.11e6 |
| rec | DRSC14998 | 1.38e6 | 1.35e6 | 1.12e6 | 1.23e6 |
| rec | DRSC15656 | 1.32e6 | 1.33e6 | 1.09e6 | 1.21e6 |
| CG14427 | DRSC17921 | 1.74e6 | 1.78e6 | 1.12e6 | 1.30e6 |
| Ppox | DRSC17033 | 1.39e6 | 1.57e6 | 1.07e6 | 1.12e6 |
| CG42450 | DRSC20022 | 1.51e6 | 1.50e6 | 1.03e6 | 1.13e6 |
| GstE13 | DRSC06083 | 1.45e6 | 1.45e6 | 1.15e6 | 1.17e6 |
| CLIP-190 | DRSC03283 | 1.18e6 | 1.34e6 | 1.24e6 | 1.22e6 |
| CG5756 | DRSC06950 | 1.52e6 | 1.65e6 | 1.25e6 | 1.43e6 |

Look-ups from the list:
stv [DRSC09796], Kc cell number, rep 1 → 1.65e6
For “S2R+ cell number, rep 2”, CG14694 [DRSC14917] reads 1.44e6
Result of CG11630 [DRSC03696] under “S2R+ cell number, rep 1”: 1.26e6

More reagents:
| gene knocked down | amplicon | Kc cell number, rep 1 | Kc cell number, rep 2 | S2R+ cell number, rep 1 | S2R+ cell number, rep 2 |
| --- | --- | --- | --- | --- | --- |
| CG13671 | DRSC10030 | 1.42e6 | 1.44e6 | 1.31e6 | 1.19e6 |
| CG33969 | DRSC11777 | 1.39e6 | 1.48e6 | 1.27e6 | 1.32e6 |
| Oseg4 | DRSC08548 | 1.59e6 | 1.71e6 | 1.29e6 | 1.32e6 |
| EndoU | DRSC15472 | 1.64e6 | 1.68e6 | 1.26e6 | 1.34e6 |
| Smg5 | DRSC03124 | 1.19e6 | 1.24e6 | 1.16e6 | 1.14e6 |
| Dbx | DRSC08270 | 1.54e6 | 1.34e6 | 9.91e5 | 1.21e6 |
| Dbx | DRSC08271 | 1.48e6 | 1.29e6 | 9.81e5 | 1.27e6 |
| Dbx | DRSC08394 | 1.51e6 | 1.29e6 | 1.01e6 | 1.15e6 |
| CG31253 + CG31131 | DRSC13839 | 1.16e6 | 1.50e6 | 1.10e6 | 1.09e6 |
| CG31245 | DRSC15498 | 1.36e6 | 1.35e6 | 1.04e6 | 1.08e6 |
| CG3857 | DRSC18542 | 5.44e5 | – | 7.75e5 | – |
| CG10163 | DRSC09710 | 1.47e6 | 1.42e6 | 1.20e6 | 1.23e6 |
| RpS27A | DRSC03421 | 1.42e6 | 1.48e6 | 9.21e5 | 1.06e6 |
| CG4854 | DRSC15663 | 1.47e6 | 1.41e6 | 1.13e6 | 1.20e6 |
| whd | DRSC07351 | 1.37e6 | 1.41e6 | 1.16e6 | 1.24e6 |
| CG15715 | DRSC10216 | 1.39e6 | 1.37e6 | 1.24e6 | 1.34e6 |
| Psc | DRSC07518 | 1.49e6 | 1.46e6 | 1.15e6 | 1.34e6 |
| Sys1 | DRSC14372 | 1.33e6 | 1.50e6 | 1.17e6 | 1.31e6 |
| CG9593 | DRSC16508 | 1.38e6 | 1.37e6 | 1.11e6 | 1.20e6 |
| PGRP-LD + Cralbp + Pmi | DRSC09743 | 1.30e6 | 1.22e6 | 1.22e6 | 1.25e6 |
| MED16 | DRSC04506 | 1.64e6 | 1.88e6 | 1.26e6 | 2.72e5 |
| CG14864 | DRSC14987 | 1.30e6 | 1.47e6 | 1.24e6 | 1.36e6 |
| Eaat2 | DRSC00032 | 1.55e6 | 1.56e6 | 1.09e6 | 1.22e6 |
| Eaat2 | DRSC00749 | 1.31e6 | 1.30e6 | 9.34e5 | 1.03e6 |
